Reference: PubChem BioAssay AID686943 (Drosophila RNAi Screening Center, 2013)

- Purpose: 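Knockdowns that increase or decrease active ERK after insulin receptor stimulation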 (primary screen)
- System: Drosophila S2R+ haemocyte-like cells expressing YFP-tagged ERK (Rolled)
- Knock-down reagent: long dsRNA against Drosophila genes
- Treatment: insulin stimulation versus unstimulated cells; dose and duration not given
- Measurement: 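Antibody staining for doubly phosphorylated ERK divided by ERK-YFP signal, as plate z-scores, in insulin-treated and untreated cells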
- Direction: replicate 1, z-score of dpERK with insulin and replicate 2, z-score of dpERK with insulin: higher = more active ERK per ERK-YFP after insulin; replicate 1, z-score of dpERK under basal conditions: higher = more basal active ERK per ERK-YFP; replicate 1, z-score of ERK-YFP with insulin: higher = more YFP-tagged ERK signal
The deposit covers about 23,000 reagents; below is a random part of those with a known target gene and a result. 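Extra replicates exist only for a retested subset of genes; insulin dose and duration not given; both raised and lowered dpERK matter.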 Names joined by + are all predicted targets of the reagent. Not given: the amount of reagent, the time to read-out.

target | dsRNA | replicate 1, z-score of dpERK with insulin | replicate 2, z-score of dpERK with insulin | replicate 1, z-score of dpERK under basal conditions | replicate 1, z-score of ERK-YFP with insulin
Nup214 (Nucleoporin 214kD) | DRSC04421 | 0.9 | 0.8 | -0.18 | -0.78
CG14883 | DRSC15007 | -0.06 | 0.38 | -0.51 | 0.33
ATbp ((A+T)-stretch binding protein) | DRSC20906 | -0.92 | 0.41 | 0.4 | 2.25
CG14966 | DRSC08425 | 0.13 | 0.46 | 0.15 | 0.49
CG31262 | DRSC13216 | 0.66 | 0.85 | -0.7 | -0.17
CG3690 | DRSC18170 | -0.06 | 0.04 | -0.13 | -0.21
CG3690 | DRSC18641 | 0.49 | -1.01 | -0.28 | -0.14
CG31751 | DRSC02464 | -0.31 | 0.8 | -0.53 | 0.92
CG31751 | DRSC02465 | -0.29 | 0.24 | 1.86 | 0.14
clumsy | DRSC03111 | -0.1 | 0.06 | 0.9 | -0.3
CSN7 (COP9 signalosome subunit 7) | DRSC06807 | -0.06 | -0.29 | -0.45 | -1.1
CSN7 (COP9 signalosome subunit 7) | DRSC06808 | -0.45 | -2.57 | -0.15 | -0.55
CTCF | DRSC11004 | -0.18 | 0.72 | 0.05 | 0.02
Zaf1 (ZAD and Architectural Function 1) | DRSC16121 | 0.83 | 0.97 | -1.01 | 0.15
AlaRS (Alanyl-tRNA synthetase) | DRSC01851 | -0.58 | 0.28 | 0.25 | 0.45
CG31462 (retired record) | DRSC14359 | 0.43 | 1.25 | 0.2 | 0.13
qkr58E-1 (quaking related 58E-1) | DRSC04709 | 2 | 2.08 | -1.11 | -0.55
CG15198 | DRSC19645 | 0.15 | 0.46 | 1.18 | 0.19
GstD9 (Glutathione S transferase D9) | DRSC14185 | -0.04 | 0.63 | 0.38 | -0.25
AP-2sigma (Adaptor Protein complex 2, sigma subunit) | DRSC15957 | 0.23 | 0.07 | -0.29 | -0.65
CG4476 | DRSC10424 | -0.5 | -0.39 | -0.75 | -0.01
Dop1R1 (Dopamine 1-like receptor 1) | DRSC13020 | 0.43 | -0.23 | 0.29 | -0.06
Dop1R1 (Dopamine 1-like receptor 1) | DRSC13021 | 0.62 | -0.35 | 0.95 | 0.12
Dop1R1 (Dopamine 1-like receptor 1) | DRSC16652 | -1.61 | -2.6 | -1.34 | 3.83
snoRNA:Me28S-A982b + Uhg4 + snoRNA:Me28S-G3255a + 1 more | DRSC05143 | -0.41 | -0.28 | -0.44 | 0.61
Polr2F (RNA polymerase II, I and III subunit F) | DRSC12366 | 0.3 | 1.01 | -0.84 | -5.79
ArgRS (Arginyl-tRNA synthetase) | DRSC20138 | 0.04 | -0.07 | -1.48 | -0.43
CG17292 | DRSC02594 | 0.09 | -0.24 | -0.46 | -0.83
Mal-A7 (Maltase A7) | DRSC06077 | 0.98 | 0.39 | 0.57 | 0.02
nAChRalpha7 (nicotinic Acetylcholine Receptor alpha7) | DRSC20078 | 1.82 | 0.43 | 0.85 | -0.51
nAChRalpha7 (nicotinic Acetylcholine Receptor alpha7) | DRSC20081 | 0.54 | -0.27 | 0.16 | -0.01
Reg-5 (Rhythmically expressed gene 5) | DRSC04647 | 0.8 | -0.04 | 0.38 | -1.3
Atac1 (Ada2a-containing complex component 1) | DRSC03155 | 0.16 | 0 | -0.6 | -0.24
unc-119 | DRSC18846 | -0.42 | -0.55 | 0.22 | 0.68
Tmem214 (Transmembrane protein 214) | DRSC02924 | 1.07 | 0.92 | 0.06 | 0.48
Tmem214 (Transmembrane protein 214) | DRSC02925 | 0.82 | 0.74 | 0.3 | -0.78
sing (singles bar) | DRSC19530 | -0.72 | -0.2 | 0.59 | 0.85
CG1024 | DRSC12496 | -0.39 | -1.04 | 2.25 | 1.27
CG7236 | DRSC03037 | 0.89 | 1.29 | 0.37 | 0.22
yrt (yurt) | DRSC16559 | -0.83 | -0.07 | -0.58 | -0.9
Rab11 | DRSC16809 | -1.3 | -1.71 | 0.31 | 0.63
Rab19 | DRSC11260 | -0.18 | 0.01 | -0.51 | -0.2
Hr38 (Hormone receptor-like in 38) | DRSC03345 | 0.01 | 0.31 | -1.45 | 0.02
CG13884 | DRSC08354 | 0.14 | 0.44 | -0.05 | 0.38
yellow-f | DRSC15348 | 0.27 | -1.61 | -0.01 | -0.66
Eig71Ek | DRSC11158 | -0.35 | -0.24 | 0.57 | 0.07
CG5500 | DRSC15820 | 0.42 | -0.35 | -0.57 | 0.39
Phb2 (Prohibitin 2) | DRSC06512 | -3.65 | -1.42 | -2.06 | 2.18
CG32112 | DRSC09815 | -0.03 | 0.32 | 1.45 | 0.28
CG31268 | DRSC13203 | -0.5 | 0.28 | 1.75 | 0.76
tipE (temperature-induced paralytic E) | DRSC08738 | -0.52 | 0.59 | -0.06 | -0.3
CG16952 | DRSC19759 | 0.22 | -0.19 | 0.07 | -0.5
CG3631 | DRSC15503 | -0.18 | 0.21 | 0.17 | -0.03
EMC6 (ER membrane protein complex subunit 6) | DRSC14386 | -0.07 | -0.27 | 0.17 | 0.2
CG13919 | DRSC08388 | -0.64 | 0.1 | -0.18 | -0.62
Targ1 (Terminal ADP-ribose protein glycohydrolase 1) | DRSC11616 | -0.52 | -0.23 | 1.01 | -0.35
LSm3 (Like Sm 3) | DRSC15920 | 0.93 | -0.02 | -0.28 | -0.09
